# Most values lie at the floor of the assay. Slopes are relative: functional sequences can read slightly below zero.
# System: Saccharomyces cerevisiae PS128 hsf1 delta, HSF1(1-493) fusion
# Assay: growth estimate (transactivation domain function in HSF1 fusion, heat-shock survival) (a.u. (slope of normalised read count over time)); higher = stronger growth at 37°C, i.e. more transactivation activity
# Details: library: random library
# Protocol: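 Random 60-nt DNA library encoding peptides of up to 20 aa, fused to the C-terminus of yeast HSF1 residues 1-493 (C-terminal TAD deleted) and expressed from the native HSF1 promoter on a CEN plasmid in hsf1-deleted S. cerevisiae PS128. Cells were selected at 37°C on -trp 5-FOA plates for 0, 2, 4, 6 and 8 days and amplicons were sequenced. Growth estimate is the slope of a robust linear fit of total-sum-normalised read counts (normalised to the first time point) over time, using at least 2 replicates. Sequences are classed functional (TAD activity) above a threshold of -0.13, set from stop-codon control sequences.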
row,Substance,growth estimate
1,AAAPSGQRGGRKYARPGAAM,< -0.25
2,AAATLGCRLNTK,-0.04
3,AAAVDSEQL,< -0.25
4,AADEWVPVS,< -0.25
5,AADFGLRTG,< -0.25
6,AAEQAQFTDARGLDRMLYLT,< -0.25
7,AAGDCSVRSL,< -0.25
8,AAGRGGRVPCLVKEHLN,< -0.25
9,AAILPSGWAGSSSEMLRRRT,< -0.25
10,AAISYTVERVQDIPGWSRAN,< -0.25
11,AALLHSDHGSRMRRTNER,< -0.25
12,AALPKSFVQAIDLQDRA,< -0.25
13,AALRVVG,< -0.25
14,AALSSLRLQSTHMR,< -0.25
15,AAMTSQQELRAN,< -0.25
16,AANNLWGGSRSLSRYGHPIA,< -0.25
17,AANPYRREAQRVHKLHSPLA,< -0.25
18,AANTVRASPLTYGTFGYAPD,< -0.25
19,AAQIRVGLVRPQRG,< -0.25
20,AARDQY,< -0.25
21,AARR,< -0.25
22,AARSFGHRKLDTTVSGKGLV,< -0.25
23,AASPGVLVVTRALRLVLTPS,< -0.25
24,AASSLRLIDRIVTGARSASP,< -0.25

row,Substance,growth estimate
1,AATFWRLYGARADAEYRRAA,< -0.25
2,AAVGVTSFERITFTVGPGRL,< -0.25
3,AAVYN,-0.243
4,AAWSKYPAAP,< -0.25
5,AAY,< -0.25
6,ACA,< -0.25
7,ACATNALSDFRGNVGSKFLD,< -0.25
8,ACAVVQKR,< -0.25
9,ACEVKIPQWNFCPASEQVKP,< -0.25
10,ACHRIHVHSLTQGAQYFGQL,< -0.25
11,ACILYCEMA,< -0.25
12,ACM,< -0.25
13,ACPYISIKLK,< -0.25
14,ACRASKLGLSADSDF,< -0.25
15,ACRESAQQDPEAS,< -0.25
16,ACRRMEKDRGGRR,< -0.25
17,ACRSRSTRHCCAYKRHAVQY,< -0.25
18,ACTVGTVVNVRPNSCIWQMR,< -0.25
19,ADAHPVPCYKTSLGRNKASA,< -0.25
20,ADDSADWTQRLRPSPPV,< -0.25
21,ADEDTLRLIVGVE,-0.231
22,ADELRHAGRRSFEL,< -0.25
23,ADKILNPRAQRNPIAEA,< -0.25
24,ADKKLRDSLSTKRLHQPRVV,< -0.25

row,Substance,growth estimate
1,ADKTSHVAVTLAFCSHPCVV,< -0.25
2,ADKTYGNAGLRRLGSVAKL,< -0.25
3,ADNWWWTAIKEGTHSWVGDN,9.56
4,ADPCLQPSSAPESATTIVSR,< -0.25
5,ADRGLPD,< -0.25
6,ADRSPRASPLCPQQVDPKMA,< -0.25
7,ADRVLVVTLWDMVD,< -0.25
8,ADSCRIIDSMQDQR,< -0.25
9,ADSIRSESRSPLG,< -0.25
10,AEEASA,< -0.25
11,AEEGHTRNMIITSEFPRLPP,< -0.25
12,AEFASHSGKRLWASAARTTA,< -0.25
13,AEFVVAVLFGKTFIRSFGQA,< -0.25
14,AEGAAKPVNSKTNKRWGLVW,< -0.25
15,AEGKAQAKLGHVPDPVES,< -0.25
16,AEHGLLSGTSTMLAQFPHSK,< -0.25
17,AEHLTGLGHTLRRFDLFISP,< -0.25
18,AEI,< -0.25
19,AEIGR,< -0.25
20,AEKKKHAQGSDRRAFCKAG,< -0.25
21,AEKWGRSSRAPCPHLLLMAI,< -0.25
22,AENMILVVRARGYRVASRVE,< -0.25
23,AEPCRADAKFSDKPTTEIRQ,-0.187
24,AEREAAR,< -0.25

# An excerpt of these results, tab-delimited.
row	Substance	growth estimate
10	AEEASA	< -0.25
11	AEEGHTRNMIITSEFPRLPP	< -0.25
12	AEFASHSGKRLWASAARTTA	< -0.25
13	AEFVVAVLFGKTFIRSFGQA	< -0.25
14	AEGAAKPVNSKTNKRWGLVW	< -0.25
15	AEGKAQAKLGHVPDPVES	< -0.25

# Additional records follow:

row,Substance,growth estimate
1,AERFYVREYDETLVTTGGIV,< -0.25
2,AERYRVLTANV,< -0.25
3,AETTSLGG,< -0.25
4,AEVPS,< -0.25
5,AEVRRDTPRPTNFPALRAQL,< -0.25
6,AEVVRQYGVKDATTKDLLAG,< -0.25
7,AFCGAAEFHRTRAYMVITTY,< -0.25
8,AFICLAISMLRLGPWIGKRG,< -0.25
9,AFIRHVS,< -0.25
10,AFLGCDQVGCLVYVTRTLRR,< -0.25
11,AFLNPTRVLSVPN,< -0.25
12,AFNECMMCLVTSHRFVNLVD,< -0.25
13,AFPGRTAI,< -0.25
14,AFPQEGD,< -0.25
15,AFRSGAS,< -0.25
16,AFSSSQVSQRSILRKQLAQA,< -0.25
17,AFTVLSWNVNKSIPSMRGT,< -0.25
18,AFVSPIKNKLSNRMRQTCSF,< -0.25
19,AFVSQRAR,< -0.25
20,AGARHCDFRAPCIHGKDTVS,< -0.25
21,AGCARAVLFARRNQVSEDDT,< -0.25
22,AGCDMDVCELIVILRGLRTA,< -0.25
23,AGCVGGKPAESTRFGCNSAQ,< -0.25
24,AGEIVGASACRSFGEGRSED,< -0.25

# Some of the entries so far, with bars between the fields:
row | Substance | growth estimate
8 | AFICLAISMLRLGPWIGKRG | < -0.25
9 | AFIRHVS | < -0.25

# Further results follow.

row,Substance,growth estimate
1,AGFQVLVPPIAATVHGRQHI,< -0.25
2,AGFRVLDGKDHPNSSTIPFR,< -0.25
3,AGFVFPIVDLIHGRPHALAR,< -0.25
4,AGG,< -0.25
5,AGGGPYGGQLAVLAARLGEG,< -0.25
6,AGGSTRRYRWCKLCLLLTVI,< -0.25
7,AGHILGAQSTNRSSGWPVAS,< -0.25
8,AGHR,< -0.25
9,AGKGAIVC,< -0.25
10,AGKLGGPRN,< -0.25
11,AGLEFPTFPRSLCAVWCPI,< -0.25
12,AGLEWMRLSVCAWTKDYRVR,-0.247
13,AGLGVRSTIQRSGRTKMGGD,< -0.25
14,AGLHILLFACCEDWSP,< -0.25
15,AGLPRVSLRAQVASTSVVGI,< -0.25
16,AGLSDHTPKKSVTCVHTVNR,< -0.25
17,AGLTIAEGHGRPFLPAGVQ,< -0.25
18,AGLTRVLTHVDGRVVAFLYW,< -0.25
19,AGMFSKFDGRLSLAGWLTDP,-0.227
20,AGNGKRSVKADRLRFLVRSH,< -0.25
21,AGNGPIC,< -0.25
22,AGPMWSYVGGCVWDRTFFI,< -0.25
23,AGPRG,< -0.25
24,AGQLWSSRHAAINCLVSVA,< -0.25

row,Substance,growth estimate
1,AGQQIYSGSYLVVTRVPSSV,< -0.25
2,AGRCVRWQCLSGLRLQAQSA,< -0.25
3,AGRGCLGLRRNICVFTAVRL,< -0.25
4,AGRGVCRLFAASRLEYQPDV,< -0.25
5,AGRKSGHANDLAGDRIPRFH,< -0.25
6,AGRRQTAWAAVHRLSAAQSA,< -0.25
7,AGRSLSENYRVLAPPSMH,-0.243
8,AGSACTHKGVLVDQKRTEAA,< -0.25
9,AGSCCLAEWKCNKMR,< -0.25
10,AGSDGFVRGNRKRFVTGGIC,< -0.25
11,AGSGMSRLPNKVGIIERGIR,< -0.25
12,AGSI,< -0.25
13,AGSLAAGQSALGFGVYGEGS,< -0.25
14,AGTASYRGANSVAKSIRSRH,< -0.25
15,AGTSPR,< -0.25
16,AGTYVTVRRCNNHRLGQG,< -0.25
17,AGVFVQNIGNMMNIPCLSQA,< -0.25
18,AGVNQSGTN,< -0.25
19,AGVRIAGCSHESDPWVPWPD,-0.135
20,AGVWYKLTPTRNDPVSLVGC,< -0.25
21,AGVYRRT,< -0.25
22,AGWML,< -0.25
23,AGYPHLL,< -0.25
24,AGYRPMFHMS,< -0.25

row,Substance,growth estimate
1,AGYYSLARRKL,< -0.25
2,AHCIQVRAPGI,< -0.253
3,AHDSALPELRRLMRIDTARG,< -0.25
4,AHFHSS,-0.133
5,AHIPCSPGSVPRIAPVTSAW,< -0.25
6,AHIVTETDTSVSVDWS,< -0.25
7,AHLGWIRPTGVSLGHAP,< -0.25
8,AHLI,< -0.25
9,AHNGVKPLKHHKVRLNSEVV,< -0.25
10,AHPASSAVPLHVSRSRLRSP,< -0.25
11,AHRLAFGVHDGGPVECALEV,< -0.25
12,AHSASHCMNTISNLPSRELL,< -0.25
13,AHSEEAPGAAHGYKVHGIRH,< -0.25
14,AHSQGNCREESGRTIRRPGT,< -0.25
15,AHTRPSAARVAAIEACTSPL,< -0.25
16,AHTVQKEGALRAVIAQSDRT,< -0.25
17,AHVGRS,< -0.25
18,AHVTGRDLGVRIDVPFV,< -0.25
19,AHYGTHVSWSAYAGFVITLW,< -0.25
20,AIARDRSSLRALLVNEEPRP,< -0.25
21,AIDFV,< -0.25
22,AIETLQVYTTALCELKPQTI,< -0.25
23,AIGK,< -0.25
24,AIGSADGPRGLSV,< -0.25

row,Substance,growth estimate
1,AIGSGA,< -0.25
2,AIGSNMGPVVQWPIHYARRY,< -0.25
3,AIHILR,-0.145
4,AIHTLTPGKPVAKKMNRKSP,< -0.25
5,AIIGEHLWVYEIRTFL,< -0.25
6,AIK,< -0.25
7,AIKM,< -0.25
8,AILGKPLPQQANQSPFLLPV,< -0.25
9,AILWTASHT,< -0.25
10,AIME,< -0.25
11,AIMGPGGLRPSSQAGTDGEP,< -0.25
12,AINASLPL,< -0.25
13,AIR,< -0.25
14,AIRAGNQALLC,< -0.25
15,AIRGVLSKRVFSR,< -0.251
16,AIRPIGGVKPYRYQSTSMGS,< -0.25
17,AIRSQFTNGQSRSRQFAELR,< -0.25
18,AIRVWFISAERSCSERPEQP,< -0.25
19,AIRYSLLQSNSRRLYLRGG,< -0.25

# Source: the supplement of paper PMC5949888
